{
  "source": "paper PMC11464796",
  "binders": {"B1": {"name": "Msm HelD (endogenous, untagged) (protein, UniProt A0QUE0 1-736)", "chain": "MSGRDYEDELQSERDYVAGLYARLDAERAQSQRRYAAALREHGGTAVERDAEVRALAKDIARLNVADNGLCFGRLDTLDDARLYIGRLGIFDRDNDFEPLLLDWRAPMARPFYVATAANPENMRRRRQFHTLGRKVVDFTDEILGRPTGAEHDATNDAALLAAVNAPRGEGMRDIVATIQAEQDQVIRLDHTGVLVIEGGPGTGKTVVALHRVAYLLYTYRKQMERHGVLVVGPTPAFLDHIGRVLPSLGESDAVFMTPGDFVPGLHVTAEDTPEAAEVKGSLKILDVLKAAVADRQELPSEPIPIDLSDVTMRIDAETAKWARDEARKTGLPHNEARAEFVDVVTYVVTERAVARIGRGWLTRDDKHAWEKMRADVVGELEDHEQFNAALDALWPILTPEDVLAQLYTSHERLRAAGAPECLWRADGEAWTVSDVPLLDELVDLLGRNKAADEAAERERREEEAYAAGVLDLMVDREDLMDDEDHLLAQDLIDAEELADRFKEQDNRELSERAAADREWTYGHVVVDEAQELSEMDWRLLMRRCPRRSFTIVGDLAQRRSPAGARSWGAMLDSYVPGRWVYKSLSVNYRTPAEIMAVAAAVLAEFAPDATPPDSVRACGVAPWARQVTDDDIASAIAEFVSEEAGREGTSVVIGPPDVPGTVPPSETKGLEFDAVLVVEPERILADGPRGAAELYVALTRATQRLGVLYRDALPQALAGLAEGDAAATVEQRTSA"}},
  "target": "Msm RNAP-FLAG (M. smegmatis (endogenous in mc^2 155) | Mycobacterium smegmatis) (UniProt A0QSL8+P60281+A0QS66+A0QWT1)",
  "assay": "co-IP; RNAP-FLAG captured from M. smegmatis lysate on anti-FLAG M2 agarose; exponential phase and 24, 48, 72 h (stationary); relative levels of HelD and σ^A on the RNAP core",
  "note": "Results are given in words; binding and its absence hold for the method and conditions named. In cells and extracts the contact can be indirect. Some binding calls cover weakened binding; strength is not graded here. Where a sequence is shown, tags or fusion partners need not be part of it.",
  "data": [
    {"binder": "B1", "values": [
      {"measurement": "binding", "value": "binds"}
    ]}
  ]
}
